The data set can be described thus: Blood tests: serum biochemical parameters in the various groups of animals. The data set is classed as in vivo, mouse. The conditions noted are these: LDLR-/-, fat diet, CKD, 28 weeks post natal, BMP-7 10 μg/kg IP weekly or binder 3% in diet.

For `O=C([O-])[O-].[Ca+2]` [CaCO3], the BUN was found to be 58 ± 10.625 mg/dL, the Calcium was 6.9 ± .589 mg/dL and the Glucose was found to be 124 ± 13.2 mg/dL.
In the case of `O=C([O-])[O-].O=C([O-])[O-].O=C([O-])[O-].[La+3].[La+3]` [Lanthanum, LaCO3], the BUN is 40 ± 5.3 mg/dL, the Calcium is 8.2 ± .3 mg/dL, the Cholesterol was determined as 889 ± 80 mg/dL and the Glucose amounted to 201 ± 19 mg/dL.

B1: BMP-7: bone morphogenetic protein-7 (osteogenic protein-1), mineralization-countering morphogen; provided by Johnson and Johnson (protein, listed as Homo sapiens)
chain: STGSKQRSQNRSKTPKNQEALRMANVAENSSSDQRQACKKHELYVSFRDLGWQDWIIAPEGYAAYYCEGECAFPLNSYMNATNHAIVQTLVHFINPETVPKPCCAPTQLNAISVLYFDDSSNVILKKYRNMVVRACGCH
Take B1: the BUN came out at 52.50 ± 5.172 mg/dL, the Calcium is 8.37 ± .229 mg/dL, the Cholesterol was found to be 911.6 ± 93.7 mg/dL and the Glucose turned out to be 191 ± 13.8 mg/dL.

These data come from patent US8741840B2, “BMP-7 for use in treating neointimal hyperplasia” (Washington University, priority 2008, dated 2014).
